Assay results from patent US20100021918A1, “METHOD FOR ASSAYING ACTION OF ANTITUMOR AGENT USING SPLICING DEFECTS AS INDEX” (Eisai R&D Management Co., Ltd., priority 2007, published 2010).
The source gives many values for each of these; only a part stands here.

System: human colon carcinoma cell strain WiDr
Experiment: Microarray analysis (2), reviewed conditions, intron expression, Table 3
Type: cell-based
Experimental: WiDr cells were first suspended in RPMI1640 medium (containing 10% FBS, penicillin, and streptomycin) and seeded in a 10 cm dish (2×10^6 cells/dish). After an overnight culture in an incubator with 5% carbon dioxide gas at 37° C., the medium was changed with medium containing 14 nM of (8E,12E,14E)-7-((4-cycloheptylpiperazin-1-yl)carbonyl)oxy-3,6,16,21-tetrahydroxy-6,10,12,16,20-pentamethyl-18,19-epoxytricosa-8,12,14-trien-11-olide or containing vehicle alone. After cultured for additional six hours, TRI reagent (SIGMA) were added to the cells and the cells were harvested. RNA was purified in accordance with the protocol of TRI reagent, followed by further purification with RNeasy (QIAGEN). Absorbance at 260 nm was measured to quantify an amount of RNA. This experiment was repeated three times and RNA samples (n=3) were prepared.
Ribosomal RNA was removed from 1 μg of each total RNA of control cells (n=3) and cells with the treatment (n=3) by using RiboMinus Human/Mouse Transcriptome Isolation Kit (Invitrogen). Single stranded cDNA synthesis, double stranded cDNA synthesis, cRNA synthesis, second single stranded cDNA synthesis, cDNA fragmentation, and cDNA labeling in order were carried out for the total RNA from which ribosomal RNA was removed, by using GeneChip Whole Transcript Sense Target Labeling and Control Reagents (Affymetrix) to make a cDNA probe. The cDNA probe was used for hybridization with Human Exon 1.0 ST Array (Affymetrix). The array was washed and stained, and luminescence intensity was measured by a scanner.
Analysis conditions were reviewed in the data used in Example 3. Genes containing increased introns upon treatment with (8E,12E,14E)-7-((4-cycloheptylpiperazin-1-yl)carbonyl)oxy-3,6,16,21-tetrahydroxy-6,10,12,16,20-pentamethyl-18,19-epoxytricosa-8,12,14-trien-11-olide were identified.
In order to consider the analysis conditions, variations in the data from the samples with identical conditions were studied. […] It turned out that, by analyzing under conditions where the expression level was more than 100 and change in the expression level was more than five times, a probe set with increased expression can be extracted.
Probe sets showing that the normalized change in the level expression of the probe set in the group with the treatment was more than 5 times; the expression level of the probe set and the gene in the group with the treatment were more than 100; and probe set annotation was “extended, full, free”, were picked out. Welch's t-test was conducted with the probe sets extracted for the treated group and the control group to determine a p and q value. A gene containing the probe sets with the q value of less than 5% was determined as a candidate gene with increased expression level of the intron regions (Table 3).
In Table 3, for each gene evaluated, gene name (Gene Name), abbreviated name (Gene Symbol), accession number (Accession), alias name (Synonym), transcription cluster number in Human Exon 1.0 ST Array (Human Exon 1.0 ST Array Transcript Cluster ID), chromosome number (Chromosome), type of strand (Strand), start region (Start), stop region (Stop), and change in expression level (Fold Change) were respectively shown.

`CCC(O)C(C)C1OC1CC(C)(O)/C=C/C=C(\C)C1OC(=O)CC(O)CCC(C)(O)C(OC(=O)N2CCN(C3CCCCCC3)CC2)/C=C/C1C` (centres unmarked) [E7107, (8E,12E,14E)-7-((4-cycloheptylpiperazin-1-yl)carbonyl)oxy-3,6,16,21-tetrahydroxy-6,10,12,16,20-pentamethyl-18,19-epoxytricosa-8,12,14-trien-11-olide] was tested, and the “Fold Change” value (gene DUSP6, Transcript Cluster ID 3464860, intron expression, treated vs control) was 9.31, the “Fold Change” value (gene DUSP14, Transcript Cluster ID 3719515, intron expression, treated vs control) was 9.97 and the “Fold Change” value (gene DYNC1LI2, Transcript Cluster ID 3695199) was 5.36. The “Fold Change” value (gene ECD, Transcript Cluster ID 3294242) was 5.29, the “Fold Change” value (gene EDD1, change in expression level, treated vs control) was 5.97 and the “Fold Change” value (gene EEF2, change in expression level, treated vs control) was 11.73. The “Fold Change” value (gene EHD1, change in expression level, treated vs control) was 6.26, the “Fold Change” value (gene EHD4, intron expression, treated vs control) was 6.75 and the “Fold Change” value (gene EIF1AX // EIF1AP1, intron expression, treated vs control) was 6.71. For the same compound, the “Fold Change” value (gene EIF2A, Transcript Cluster ID 2647742) was 5.27, the “Fold Change” value (gene EIF2C2, Transcript Cluster ID 3156193, intron expression, treated vs control) was 9.74 and the “Fold Change” value (gene EIF2S1, change in expression level, treated vs control) was 6.30. For the same compound, the “Fold Change” value (gene EIF4A1 // SENP3, Transcript Cluster ID 3708826, intron expression, treated vs control) was 9.46, the “Fold Change” value (gene EIF4E, change in expression level, treated vs control) was 6.30 and the “Fold Change” value (gene EIF4G1, change in expression level, treated vs control) was 12.13. The “Fold Change” value (gene EIF5, Transcript Cluster ID 3553607, intron expression, treated vs control) was 10.00, the “Fold Change” value (gene EIF5A, intron expression, treated vs control) was 7.42 and the “Fold Change” value (gene ELAVL1 // TIMM44, intron expression, treated vs control) was 6.93. The “Fold Change” value (gene ELF1, intron expression, treated vs control) was 7.32, the “Fold Change” value (gene ELL2, change in expression level, treated vs control) was 5.99 and the “Fold Change” value (gene EML4, Transcript Cluster ID 2478748) was 5.06. The “Fold Change” value (gene EMP1, change in expression level, treated vs control) was 5.95, the “Fold Change” value (gene EPHA2, change in expression level, treated vs control) was 11.54 and the “Fold Change” value (gene EPS8, change in expression level, treated vs control) was 6.23. The “Fold Change” value (gene EPS8L1, intron expression, treated vs control) was 6.74, the “Fold Change” value (gene ERBB2IP // CASP6, change in expression level, treated vs control) was 13.87 and the “Fold Change” value (gene EREG, Transcript Cluster ID 2731513, intron expression, treated vs control) was 9.62. For the same compound, the “Fold Change” value (gene ERH, Transcript Cluster ID 3570049) was 5.35, the “Fold Change” value (gene ERRFI1, intron expression, treated vs control) was 6.62 and the “Fold Change” value (gene ETS2, change in expression level, treated vs control) was 6.06. The “Fold Change” value (gene EWSR1, intron expression, treated vs control) was 7.19, the “Fold Change” value (gene EXOSC2, Transcript Cluster ID 3191695, intron expression, treated vs control) was 10.83 and the “Fold Change” value (gene EXOSC4, Transcript Cluster ID 3120008, intron expression, treated vs control) was 10.30. For the same compound, the “Fold Change” value (gene EXOSC9, change in expression level, treated vs control) was 11.79, the “Fold Change” value (gene EXT1, Transcript Cluster ID 3150060) was 5.46 and the “Fold Change” value (gene EZH2, change in expression level, treated vs control) was 6.25. For the same compound, the “Fold Change” value (gene FAM89B, Transcript Cluster ID 3335338) was 5.10, the “Fold Change” value (gene FAM104A, change in expression level, treated vs control) was 6.41 and the “Fold Change” value (gene FAT, intron expression, treated vs control) was 7.05. The “Fold Change” value (gene FHL2, intron expression, treated vs control) was 6.96, the “Fold Change” value (gene FLJ11171, Transcript Cluster ID 3697563) was 5.34 and the “Fold Change” value (gene FLJ12529, change in expression level, treated vs control) was 6.48. The “Fold Change” value (gene FLJ14154, change in expression level, treated vs control) was 6.04, the “Fold Change” value (gene FLOT1, change in expression level, treated vs control) was 6.38 and the “Fold Change” value (gene FMR1, change in expression level, treated vs control) was 5.96. The “Fold Change” value (gene FNBP4, Transcript Cluster ID 3372459) was 5.39, the “Fold Change” value (gene FNDC3B, intron expression, treated vs control) was 7.33 and the “Fold Change” value (gene FOXJ3, intron expression, treated vs control) was 7.05. For the same compound, the “Fold Change” value (gene FOXK2, change in expression level, treated vs control) was 14.01, the “Fold Change” value (gene FOXO1A, Transcript Cluster ID 3510858, intron expression, treated vs control) was 10.41 and the “Fold Change” value (gene FRMD5, Transcript Cluster ID 3621728) was 5.39. The “Fold Change” value (gene FTHL7 // FTH1 // FTHL3 // FTHP1 // FTHL12 // FTHL11 // FTHL8, change in expression level, treated vs control) was 6.16, the “Fold Change” value (gene FUBP1, change in expression level, treated vs control) was 16.59 and the “Fold Change” value (gene FUS, intron expression, treated vs control) was 6.82. For the same compound, the “Fold Change” value (gene FUSIP1, change in expression level, treated vs control) was 5.93, the “Fold Change” value (gene GAB1, intron expression, treated vs control) was 7.00 and the “Fold Change” value (gene GAK, intron expression, treated vs control) was 7.00. The “Fold Change” value (gene GBF1, change in expression level, treated vs control) was 17.47, the “Fold Change” value (gene GCLC, change in expression level, treated vs control) was 6.12 and the “Fold Change” value (gene GCNT3, change in expression level, treated vs control) was 5.98. The “Fold Change” value (gene GDI2, change in expression level, treated vs control) was 6.03, the “Fold Change” value (gene GEMIN5, change in expression level, treated vs control) was 6.30 and the “Fold Change” value (gene GMNN, intron expression, treated vs control) was 7.06. For the same compound, the “Fold Change” value (gene GNAS, Transcript Cluster ID 3891163, intron expression, treated vs control) was 9.04, the “Fold Change” value (gene GNB2L1, Transcript Cluster ID 2891052, intron expression, treated vs control) was 9.38 and the “Fold Change” value (gene GNL2, change in expression level, treated vs control) was 12.14. The “Fold Change” value (gene GNL3, Transcript Cluster ID 2624074, intron expression, treated vs control) was 9.00, the “Fold Change” value (gene GOLPH4, intron expression, treated vs control) was 7.07 and the “Fold Change” value (gene GOPC // ROS1, Transcript Cluster ID 2971378, intron expression, treated vs control) was 10.49. For the same compound, the “Fold Change” value (gene GORASP2 // DHRS9, change in expression level, treated vs control) was 6.27, the “Fold Change” value (gene GOSR1, Transcript Cluster ID 3716481) was 5.40 and the “Fold Change” value (gene GPBP1, intron expression, treated vs control) was 6.55. The “Fold Change” value (gene GPBP1L1, intron expression, treated vs control) was 6.94, the “Fold Change” value (gene GPR126, Transcript Cluster ID 2928461, intron expression, treated vs control) was 10.05 and the “Fold Change” value (gene GPRC5A, change in expression level, treated vs control) was 5.96. For the same compound, the “Fold Change” value (gene GRHL2, Transcript Cluster ID 3109687) was 5.29, the “Fold Change” value (gene GRPEL2, change in expression level, treated vs control) was 11.03 and the “Fold Change” value (gene GRWD1, intron expression, treated vs control) was 6.95. The “Fold Change” value (gene GSK3B, change in expression level, treated vs control) was 6.05, the “Fold Change” value (gene GTF2F2, intron expression, treated vs control) was 6.60 and the “Fold Change” value (gene GTF3C4, Transcript Cluster ID 3192525, intron expression, treated vs control) was 10.00. The “Fold Change” value (gene HAT1, Transcript Cluster ID 2515369) was 5.26, the “Fold Change” value (gene HELZ, intron expression, treated vs control) was 7.08 and the “Fold Change” value (gene HERPUD1, change in expression level, treated vs control) was 19.03. For the same compound, the “Fold Change” value (gene HGS, Transcript Cluster ID 3738138) was 5.08, the “Fold Change” value (gene HIATL1, intron expression, treated vs control) was 7.43 and the “Fold Change” value (gene HIF1A, Transcript Cluster ID 3539070) was 5.38. For the same compound, the “Fold Change” value (gene HMBS, change in expression level, treated vs control) was 6.30, the “Fold Change” value (gene HMGCR, change in expression level, treated vs control) was 13.12 and the “Fold Change” value (gene HMGCS1, Transcript Cluster ID 2855501, intron expression, treated vs control) was 10.19. The “Fold Change” value (gene HMGN1, change in expression level, treated vs control) was 11.92, the “Fold Change” value (gene HNRPD, Transcript Cluster ID 2775463, intron expression, treated vs control) was 9.50 and the “Fold Change” value (gene HNRPK, intron expression, treated vs control) was 7.45. For the same compound, the “Fold Change” value (gene HNRPL, intron expression, treated vs control) was 7.45, the “Fold Change” value (gene HNRPM, Transcript Cluster ID 3819543, intron expression, treated vs control) was 10.37 and the “Fold Change” value (gene HNRPR, intron expression, treated vs control) was 6.84. For the same compound, the “Fold Change” value (gene HNRPUL1, Transcript Cluster ID 3834089) was 5.22, the “Fold Change” value (gene HRB, change in expression level, treated vs control) was 6.43 and the “Fold Change” value (gene HSP90AB1, intron expression, treated vs control) was 6.93. For the same compound, the “Fold Change” value (gene HSP90B1 // TDG // HSP90B2P, Transcript Cluster ID 3429312, intron expression, treated vs control) was 9.34, the “Fold Change” value (gene HSPA5, change in expression level, treated vs control) was 11.27 and the “Fold Change” value (gene HSPA8 // FCGR3B, change in expression level, treated vs control) was 6.33. For the same compound, the “Fold Change” value (gene HSPC148, change in expression level, treated vs control) was 6.26 and the “Fold Change” value (gene HSPH1, Transcript Cluster ID 3508330, intron expression, treated vs control) was 9.68.
